These are yes or no findings as the source states them, for the method shown. In cells and extracts the contact can be indirect. Some binding calls cover weakened binding; strength is not graded here.
Molecular target: kinesin heavy chain (KHC) subunit of conventional kinesin (Doryteuthis pealeii (endogenous in squid axoplasm)) (UniProt P21613)
Experiment: co-IP; anti-KHC antibody (H2) and protein-G beads from clarified lysates of squid axoplasms perfused with P^32-γ ATP and 500 nM GST or GST–AICD; washed with 50 mM HEPES, 200 mM NaCl, 0.5% Triton X-100, pH 7.4; SDS-PAGE and autoradiography

Protein sequences, listed by entry. Tags and fused reporters are not part of them.
UniProt P21613: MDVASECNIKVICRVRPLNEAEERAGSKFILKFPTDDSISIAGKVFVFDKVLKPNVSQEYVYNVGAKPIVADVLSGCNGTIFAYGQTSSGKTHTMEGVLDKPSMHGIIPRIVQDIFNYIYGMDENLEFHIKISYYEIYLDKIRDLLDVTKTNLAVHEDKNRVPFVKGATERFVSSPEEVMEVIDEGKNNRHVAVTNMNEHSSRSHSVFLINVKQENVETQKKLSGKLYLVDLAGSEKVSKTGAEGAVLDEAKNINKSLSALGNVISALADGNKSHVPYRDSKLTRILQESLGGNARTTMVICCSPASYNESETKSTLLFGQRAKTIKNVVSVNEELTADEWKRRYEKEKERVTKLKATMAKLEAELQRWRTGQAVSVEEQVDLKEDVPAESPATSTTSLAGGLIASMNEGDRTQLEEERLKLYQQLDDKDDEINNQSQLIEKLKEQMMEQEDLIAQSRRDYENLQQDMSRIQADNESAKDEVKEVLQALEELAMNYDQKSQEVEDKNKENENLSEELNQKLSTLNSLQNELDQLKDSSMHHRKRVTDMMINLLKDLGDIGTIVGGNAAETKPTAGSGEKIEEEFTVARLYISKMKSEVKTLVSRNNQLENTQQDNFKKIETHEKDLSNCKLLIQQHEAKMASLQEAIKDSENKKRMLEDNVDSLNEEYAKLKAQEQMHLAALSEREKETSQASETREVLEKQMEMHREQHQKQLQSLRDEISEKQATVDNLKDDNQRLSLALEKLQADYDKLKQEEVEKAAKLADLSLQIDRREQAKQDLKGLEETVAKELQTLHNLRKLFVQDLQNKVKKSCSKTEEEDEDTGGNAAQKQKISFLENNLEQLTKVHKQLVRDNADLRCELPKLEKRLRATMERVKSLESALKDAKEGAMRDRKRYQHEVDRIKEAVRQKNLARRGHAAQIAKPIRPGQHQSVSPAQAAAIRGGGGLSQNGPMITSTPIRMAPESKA

B1: kinesin light chain (KLC) subunit of conventional kinesin (protein, UniProt P46825 1-571)
chain: MEVTQTVKSYRIKKIEEIGKMTALSQEEIISNTKTVIQGLDTLKNEHNQILNSLLTSMKTIRKENGDTNLVEEKANILKKSVDSIELGLGEAQVMMALANHLQHTEAEKQKLRAQVRRLCQENAWLRDELANTQQKLQMSEQKVATIEEEKKHLEFMNEMKKYDTNEAQVNEEKESEQSSLDLGFPDDDDDGGQPEVLSPTQPSAMAQAASGGCEIPARLRTLHNLVIQYASQGRYEVAVPLCKQALEDLEKTSGHDHPDVATMLNILALVYRDQGKYKEAANLLNDALGIREKTLGPDHPAVAATLNNLAVLYGKRGKYKDAEPLCKRALVIREKVLGKDHPDVAKQLNNLALLCQNQGKYEEVERYYQRALEIYQKELGPDDPNVAKTKNNLASAYLKQGKYKQAEILYKEVLTRAHEKEFGKVDDDNKPIWMQAEEREENKAKYKDGAPQPDYGSWLKAVKVDSPTVTTTLKNLGALYRRQGKYEAAETLEECALRSRKSALEVVRQTKISDVLGSDFSKGQSPKDRKRSNSRDRNRRDSMDSVSYEKSGDGDEHEKSKLHVGTSHKQ
modifications: P^32-radiolabeled (phosphorylated in axoplasm with P^32-γ ATP), sites not stated
For B1, the binding was “binds”.

Source: publication PMC10572015
